By UniProt entry, the sequences of proteins in these tests, tags left out.
UniProt Q14694: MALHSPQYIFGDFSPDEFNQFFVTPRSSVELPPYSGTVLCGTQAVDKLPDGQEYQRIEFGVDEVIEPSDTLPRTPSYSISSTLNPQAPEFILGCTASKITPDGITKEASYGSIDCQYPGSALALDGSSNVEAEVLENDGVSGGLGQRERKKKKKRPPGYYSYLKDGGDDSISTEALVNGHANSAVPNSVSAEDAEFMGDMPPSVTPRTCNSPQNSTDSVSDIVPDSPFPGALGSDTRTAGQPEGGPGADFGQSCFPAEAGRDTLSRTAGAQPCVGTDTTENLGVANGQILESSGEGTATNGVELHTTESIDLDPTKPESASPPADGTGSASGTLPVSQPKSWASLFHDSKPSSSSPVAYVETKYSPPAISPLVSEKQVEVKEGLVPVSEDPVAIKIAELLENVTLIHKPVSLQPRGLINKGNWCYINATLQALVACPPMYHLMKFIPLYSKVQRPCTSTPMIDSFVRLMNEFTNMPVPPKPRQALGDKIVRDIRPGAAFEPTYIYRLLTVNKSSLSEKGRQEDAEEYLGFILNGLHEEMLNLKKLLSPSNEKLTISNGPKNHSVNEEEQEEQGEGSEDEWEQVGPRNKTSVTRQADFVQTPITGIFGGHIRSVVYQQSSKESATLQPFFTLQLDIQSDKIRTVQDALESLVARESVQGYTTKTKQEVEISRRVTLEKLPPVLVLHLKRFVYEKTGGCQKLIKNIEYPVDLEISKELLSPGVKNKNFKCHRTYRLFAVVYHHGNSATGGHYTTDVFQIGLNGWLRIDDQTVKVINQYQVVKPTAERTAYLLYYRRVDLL
UniProt P53350: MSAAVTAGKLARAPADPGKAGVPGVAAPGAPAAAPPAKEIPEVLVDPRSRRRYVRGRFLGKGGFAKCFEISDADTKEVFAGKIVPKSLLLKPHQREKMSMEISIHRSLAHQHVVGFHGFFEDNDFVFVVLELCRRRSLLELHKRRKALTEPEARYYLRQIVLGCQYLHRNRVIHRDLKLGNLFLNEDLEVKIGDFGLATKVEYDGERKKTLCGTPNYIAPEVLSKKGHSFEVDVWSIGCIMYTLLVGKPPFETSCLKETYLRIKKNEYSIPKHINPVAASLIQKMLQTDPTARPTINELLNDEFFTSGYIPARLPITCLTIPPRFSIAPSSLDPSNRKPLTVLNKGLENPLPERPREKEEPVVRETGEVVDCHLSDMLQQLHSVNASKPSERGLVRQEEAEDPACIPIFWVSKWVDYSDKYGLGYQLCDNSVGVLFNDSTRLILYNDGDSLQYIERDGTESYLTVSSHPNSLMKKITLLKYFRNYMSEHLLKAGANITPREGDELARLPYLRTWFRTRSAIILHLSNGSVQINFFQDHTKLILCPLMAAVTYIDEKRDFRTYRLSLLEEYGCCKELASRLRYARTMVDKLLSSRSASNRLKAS

In paper PMC12167373:

Target: Ubiquitin-specific peptidase 10 (USP10), endogenous (human (endogenous in PANC-1 and MIAPaCa-2)) (UniProt Q14694)
Assay: affinity purification with mass spectrometry; endogenous USP10 purified by IP from PANC-1 and MIAPaCa-2 cells; shotgun mass spectrometry of the proteins found with it

binding: binds
Substance: PLK1, endogenous (from UniProt P53350 1-603) (enzyme)

No constants are given. Whether binding was seen depends on the method and setting. In cells and extracts the contact can be indirect. A yes stands for co-enrichment or nearness to the bait. Other partners may have been found.
